PubChem BioAssay AID1224830, NIAID, 2016
Here is a random part of about 18,000 reagents. About 2,900 of all reagents (16%) count as active. 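Calls are made per well; low scores hint the gene aids the LPS response, high scores that it dampens it.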 Repeated entries: four replicate wells of each siRNA pool.

Screen: 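Genes whose knock-down alters the TNF-alpha reporter response to LPS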 (primary screen)
Cells: human THP-1 monocytic leukaemia cells, TNF dual-luciferase reporter clone, PMA-differentiated to macrophage-like cells
Reagents: siRNA pool against human genes, 50 nM
Timing: LPS for 4 h, given about 3 days after siRNA transfection
Challenge: bacterial LPS (TLR4 ligand), 10 ng/ml
Measured: 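TNF firefly reporter luminescence divided by renilla, normalised to the plate median, then turned into a robust z-score for each replicate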
Scale: TNF reporter robust z-score: higher = stronger TNF reporter response to LPS
Hit rule: 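Each well counts as active if its z-score is over 2.8 or under -1.5; controls are left without a call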

| gene | TNF reporter robust z-score | Outcome |
| --- | --- | --- |
| FGFRL1 (fibroblast growth factor receptor like 1) | 1.28 | inactive |
| FGFRL1 (fibroblast growth factor receptor like 1) | 0.68 | inactive |
| FGFRL1 (fibroblast growth factor receptor like 1) | 0.55 | inactive |
| FGFRL1 (fibroblast growth factor receptor like 1) | 1.74 | inactive |
| SCNN1D (sodium channel epithelial 1 subunit delta) | -0.66 | inactive |
| SCNN1D (sodium channel epithelial 1 subunit delta) | 0.54 | inactive |
| SCNN1D (sodium channel epithelial 1 subunit delta) | 0.95 | inactive |
| SCNN1D (sodium channel epithelial 1 subunit delta) | -0.99 | inactive |
| PPP3CC (protein phosphatase 3 catalytic subunit gamma) | -0.78 | inactive |
| PPP3CC (protein phosphatase 3 catalytic subunit gamma) | 0.68 | inactive |
| PPP3CC (protein phosphatase 3 catalytic subunit gamma) | -1.04 | inactive |
| PPP3CC (protein phosphatase 3 catalytic subunit gamma) | 1.15 | inactive |
| CENPW (centromere protein W) | -0.57 | inactive |
| CENPW (centromere protein W) | -0.58 | inactive |
| CENPW (centromere protein W) | -0.04 | inactive |
| CENPW (centromere protein W) | 0.33 | inactive |
| TMTC1 (transmembrane O-mannosyltransferase targeting cadherins 1) | – | inactive |
| IFT70B (intraflagellar transport 70B) | -0.57 | inactive |
| IFT70B (intraflagellar transport 70B) | -0.83 | inactive |
| IFT70B (intraflagellar transport 70B) | -0.11 | inactive |
| IFT70B (intraflagellar transport 70B) | -0.38 | inactive |
| LGALS9C (galectin 9C) | 0.79 | inactive |
| LGALS9C (galectin 9C) | 1.49 | inactive |
| LGALS9C (galectin 9C) | 1.83 | inactive |
| LGALS9C (galectin 9C) | -0.31 | inactive |
| TRMT6 (tRNA methyltransferase 6 non-catalytic subunit) | 1.53 | inactive |
| TRMT6 (tRNA methyltransferase 6 non-catalytic subunit) | 1.2 | inactive |
| TRMT6 (tRNA methyltransferase 6 non-catalytic subunit) | 1.71 | inactive |
| TRMT6 (tRNA methyltransferase 6 non-catalytic subunit) | 1.56 | inactive |
| MTCL3 (MTCL family member 3) | 0.06 | inactive |
| MTCL3 (MTCL family member 3) | -0.76 | inactive |
| MTCL3 (MTCL family member 3) | 0.72 | inactive |
| MTCL3 (MTCL family member 3) | 0.38 | inactive |
| MYOG (myogenin) | -0.44 | inactive |
| MYOG (myogenin) | -0.54 | inactive |
| MYOG (myogenin) | -0.11 | inactive |
| MYOG (myogenin) | -0.7 | inactive |
| ELMOD3 (ELMO domain containing 3) | -0.2 | inactive |
| ELMOD3 (ELMO domain containing 3) | 1.16 | inactive |
| ELMOD3 (ELMO domain containing 3) | -0.98 | inactive |
| ELMOD3 (ELMO domain containing 3) | 1.61 | inactive |
| JUN (Jun proto-oncogene, AP-1 transcription factor subunit) | -2.23 | active |
| JUN (Jun proto-oncogene, AP-1 transcription factor subunit) | -1.71 | active |
| JUN (Jun proto-oncogene, AP-1 transcription factor subunit) | -1.75 | active |
| JUN (Jun proto-oncogene, AP-1 transcription factor subunit) | -2 | active |
| FGD2 (FYVE, RhoGEF and PH domain containing 2) | 1.04 | inactive |
| FGD2 (FYVE, RhoGEF and PH domain containing 2) | 1.07 | inactive |
| FGD2 (FYVE, RhoGEF and PH domain containing 2) | 1.3 | inactive |
| CRCP (CGRP receptor component) | 0.2 | inactive |
| CRCP (CGRP receptor component) | 0.71 | inactive |
| CRCP (CGRP receptor component) | 0.03 | inactive |
| TOR1A (torsin family 1 member A) | -0.54 | inactive |
| TOR1A (torsin family 1 member A) | 2.06 | inactive |
| TOR1A (torsin family 1 member A) | 0.27 | inactive |
| TOR1A (torsin family 1 member A) | -0.15 | inactive |
| ARRDC3 (arrestin domain containing 3) | 1.05 | inactive |
| ARRDC3 (arrestin domain containing 3) | 1.25 | inactive |
| ARRDC3 (arrestin domain containing 3) | 1.21 | inactive |
| ARRDC3 (arrestin domain containing 3) | -0.44 | inactive |
| TTLL4 (tubulin tyrosine ligase like 4) | 0.17 | inactive |
| TTLL4 (tubulin tyrosine ligase like 4) | 0.81 | inactive |
| TTLL4 (tubulin tyrosine ligase like 4) | -0.83 | inactive |
| TTLL4 (tubulin tyrosine ligase like 4) | -0.07 | inactive |
| KAT8 (lysine acetyltransferase 8) | 4.38 | active |
| KAT8 (lysine acetyltransferase 8) | 0.33 | inactive |
| KAT8 (lysine acetyltransferase 8) | 0.66 | inactive |
| KAT8 (lysine acetyltransferase 8) | -1.33 | inactive |
| NFKBID (NFKB inhibitor delta) | 0.05 | inactive |
| NFKBID (NFKB inhibitor delta) | 0.28 | inactive |
| NFKBID (NFKB inhibitor delta) | 0.08 | inactive |
| NFKBID (NFKB inhibitor delta) | 1.6 | inactive |
| CFAP91 (cilia and flagella associated protein 91) | 1.52 | inactive |
| CFAP91 (cilia and flagella associated protein 91) | 1.74 | inactive |
| CFAP91 (cilia and flagella associated protein 91) | 2.02 | inactive |
| CFAP91 (cilia and flagella associated protein 91) | 2.12 | inactive |
| VCAN (versican) | -0.37 | inactive |
| VCAN (versican) | 0.62 | inactive |
| VCAN (versican) | -0.4 | inactive |
| VCAN (versican) | -0.21 | inactive |
| POU3F2 (POU class 3 homeobox 2) | -0.39 | inactive |
| POU3F2 (POU class 3 homeobox 2) | 0.15 | inactive |
| POU3F2 (POU class 3 homeobox 2) | 0.06 | inactive |
| POU3F2 (POU class 3 homeobox 2) | 0.77 | inactive |
| ZNF296 (zinc finger protein 296) | 1.85 | inactive |
| ZNF296 (zinc finger protein 296) | 2.24 | inactive |
| ZNF296 (zinc finger protein 296) | 0.58 | inactive |
| ZNF296 (zinc finger protein 296) | 0.86 | inactive |
| INSYN2A (inhibitory synaptic factor 2A) | 0.99 | inactive |
| INSYN2A (inhibitory synaptic factor 2A) | 1.49 | inactive |
| INSYN2A (inhibitory synaptic factor 2A) | 0.62 | inactive |
| INSYN2A (inhibitory synaptic factor 2A) | 1.33 | inactive |
| MMD2 (monocyte to macrophage differentiation associated 2) | 0.53 | inactive |
| MMD2 (monocyte to macrophage differentiation associated 2) | 1.23 | inactive |
| MMD2 (monocyte to macrophage differentiation associated 2) | 0.91 | inactive |
| MMD2 (monocyte to macrophage differentiation associated 2) | 0.07 | inactive |
| ZNF398 (zinc finger protein 398) | -0.8 | inactive |
| ZNF398 (zinc finger protein 398) | -0.1 | inactive |
| ZNF398 (zinc finger protein 398) | -0.74 | inactive |
| ZNF398 (zinc finger protein 398) | -0.22 | inactive |
| C1orf21 (chromosome 1 open reading frame 21) | -0.35 | inactive |
| C1orf21 (chromosome 1 open reading frame 21) | 0.37 | inactive |
| C1orf21 (chromosome 1 open reading frame 21) | 0.02 | inactive |
| C1orf21 (chromosome 1 open reading frame 21) | 0.12 | inactive |
| CFLAR (CASP8 and FADD like apoptosis regulator) | -1.72 | active |
| CFLAR (CASP8 and FADD like apoptosis regulator) | -1.4 | inactive |
| CFLAR (CASP8 and FADD like apoptosis regulator) | -1.81 | active |
| CFLAR (CASP8 and FADD like apoptosis regulator) | -1.71 | active |
| SPMAP1 (sperm microtubule associated protein 1) | 0.06 | inactive |
| SPMAP1 (sperm microtubule associated protein 1) | 0.63 | inactive |
| SPMAP1 (sperm microtubule associated protein 1) | 1.16 | inactive |
| SPMAP1 (sperm microtubule associated protein 1) | 0.6 | inactive |

Reformatted: entries from further up.
{"gene":"FGFRL1 (fibroblast growth factor receptor like 1)","TNF reporter robust z-score":0.55,"Outcome":"inactive"}
{"gene":"FGFRL1 (fibroblast growth factor receptor like 1)","TNF reporter robust z-score":1.74,"Outcome":"inactive"}
{"gene":"SCNN1D (sodium channel epithelial 1 subunit delta)","TNF reporter robust z-score":-0.66,"Outcome":"inactive"}
{"gene":"SCNN1D (sodium channel epithelial 1 subunit delta)","TNF reporter robust z-score":0.54,"Outcome":"inactive"}
{"gene":"SCNN1D (sodium channel epithelial 1 subunit delta)","TNF reporter robust z-score":0.95,"Outcome":"inactive"}
{"gene":"SCNN1D (sodium channel epithelial 1 subunit delta)","TNF reporter robust z-score":-0.99,"Outcome":"inactive"}
{"gene":"PPP3CC (protein phosphatase 3 catalytic subunit gamma)","TNF reporter robust z-score":-0.78,"Outcome":"inactive"}
{"gene":"PPP3CC (protein phosphatase 3 catalytic subunit gamma)","TNF reporter robust z-score":0.68,"Outcome":"inactive"}
{"gene":"PPP3CC (protein phosphatase 3 catalytic subunit gamma)","TNF reporter robust z-score":-1.04,"Outcome":"inactive"}
{"gene":"PPP3CC (protein phosphatase 3 catalytic subunit gamma)","TNF reporter robust z-score":1.15,"Outcome":"inactive"}
{"gene":"CENPW (centromere protein W)","TNF reporter robust z-score":-0.57,"Outcome":"inactive"}
{"gene":"CENPW (centromere protein W)","TNF reporter robust z-score":-0.58,"Outcome":"inactive"}
{"gene":"CENPW (centromere protein W)","TNF reporter robust z-score":-0.04,"Outcome":"inactive"}
{"gene":"CENPW (centromere protein W)","TNF reporter robust z-score":0.33,"Outcome":"inactive"}
{"gene":"TMTC1 (transmembrane O-mannosyltransferase targeting cadherins 1)","Outcome":"inactive"}
{"gene":"IFT70B (intraflagellar transport 70B)","TNF reporter robust z-score":-0.57,"Outcome":"inactive"}
{"gene":"IFT70B (intraflagellar transport 70B)","TNF reporter robust z-score":-0.83,"Outcome":"inactive"}
{"gene":"IFT70B (intraflagellar transport 70B)","TNF reporter robust z-score":-0.11,"Outcome":"inactive"}
